Literature values as cited in patent US20250332159A1, “REACTIVE OXYGEN SPECIES MODULATION THROUGH BINDING OF LIGANDS AT THE NQ-BINDING SITE OF THE RESPIRATORY COMPLEX III” (University of Health Sciences & Pharmacy in St. Louis, priority 2024, published 2025).

System: MCF7 cells
Settings: read-out: IC50 of positive controls; MCF7, literature references given (Seeger et al., 2004; Fang et al., 2014); cited from earlier work

COc1cccc2c1C(=O)c1c(O)c3c(c(O)c1C2=O)C[C@@](O)(C(=O)CO)C[C@@H]3O[C@H]1C[C@H](N)[C@H](O)[C@H](C)O1 [doxorubicin]
IC50: ~1000 nM
